# From paper PMC6558757 (JRSM Cardiovascular Disease, 2019)
# System: hiPSC-CMs (iCells)
# Test: hiPSC-CM assay
# Assay type: cell-based, human
smiles,measurement,setting,value
Cc1cccc(CCN2CCC(C(=O)c3ccc(NS(C)(=O)=O)cc3)CC2)n1 [E-4031],effect on beating rate and impedance amplitude,"hERG blocker alone at tested concentrations (cisapride 3, 10 and 30 nM)",little effect
same,effect on FPDcF (without pacing) and FPD (paced at 1.2 Hz),"hERG blocker alone, concentrations below EAD-causing concentration",increased
